Data taken from US20230374127A1 (LG CHEM, published 2023).
These are yes or no findings as the source states them, for the method shown. Some entries that bind do so weakly or less than the wild type.

Sequences of proteins named here, by UniProt entry; tags and fusion partners are left off. Residues count along the entry.
UniProt Q8NHL6, residues 24-650: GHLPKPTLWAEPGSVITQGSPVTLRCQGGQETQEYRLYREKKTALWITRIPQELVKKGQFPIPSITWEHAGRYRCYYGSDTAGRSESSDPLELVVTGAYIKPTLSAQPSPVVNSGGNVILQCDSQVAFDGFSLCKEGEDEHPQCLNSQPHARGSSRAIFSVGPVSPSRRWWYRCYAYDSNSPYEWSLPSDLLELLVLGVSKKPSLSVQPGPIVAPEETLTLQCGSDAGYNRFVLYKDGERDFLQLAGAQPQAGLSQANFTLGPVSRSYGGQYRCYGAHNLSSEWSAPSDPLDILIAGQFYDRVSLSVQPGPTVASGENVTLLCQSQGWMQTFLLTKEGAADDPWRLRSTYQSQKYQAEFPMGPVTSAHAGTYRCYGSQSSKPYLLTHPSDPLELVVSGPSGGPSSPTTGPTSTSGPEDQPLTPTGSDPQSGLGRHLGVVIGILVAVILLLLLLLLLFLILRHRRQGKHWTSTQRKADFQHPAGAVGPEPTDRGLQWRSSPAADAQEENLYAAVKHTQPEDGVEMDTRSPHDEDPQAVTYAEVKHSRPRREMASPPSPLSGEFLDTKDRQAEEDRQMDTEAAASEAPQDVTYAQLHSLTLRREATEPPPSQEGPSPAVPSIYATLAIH

Columns and labels:
[1] = target: LILRB1 on CHO cells overexpressing LILRB1 (UniProt Q8NHL6); test: flow cytometry on CHO cells overexpressing LILRB1, antibody at 10 ug/mL
[2] = target: LILRB1 on CHO cells overexpressing LILRB1 (UniProt Q8NHL6); test: flow cytometry (iQue screener) on LILRB1 overexpressing CHO cells, antibody at 10 ug/mL, anti-human Fc-biotin and streptavidin PE

binding [1]: binds
binding [2]: binds
B1: anti-LILRB1 antibody No. 10 (antibody, human IgG4 S228P, kappa, F234A L235A, V domains shown)
VH: QVQLVQSGAEVKKPGSSVKVSCKASGGTFSSHYMHWVRQAPGQGLEWMGWISPYLGSTNYAQKFQGRVTITADESTSTAYMELSSLRSEDTAVYYCARDETGSTYGAFDYWGQGTLVTVSS
VL: DIQMTQSPSSLSASVGDRVTITCRASQSISNYLNWYQQKPGKAPKLLIYAASNLQSGVPSRFSGSGSGTDFTLTISSLQPEDFATYYCQQSYSFPFTFGQGTKVEIKR
notes: Human IgG4 / kappa, expressed in ExpiCHO-S cells; also called clone 10
